The text below walks through data of PubChem BioAssay AID1487 (National Center for Advancing Translational Sciences (NCATS), 2009).

The nature of the test: qHTS Assay for Modulators of Lamin A Splicing. As to conditions: HeLa LMNA splicing GFP/RFP minigene ratio, 48 h. The method, boiled down: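 S3 HeLa stable clones carrying a lamin A-EGFP splicing minigene plus DsRed2 were seeded at 600 cells/well in Opti-MEM with 2% FBS, pin-dosed and incubated 48 h at 37°C. Acumen cytometry (488 nm) gave the GFP/RFP total-intensity ratio.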
In general terms: In qHTS, concentration-response curves come from the screen itself.

[1] abbreviates: measured here: GFP splicing reporter channel.
[2] abbreviates: measured here: RFP viability control channel.

This is one part of the list. Shown are side measurements of this screen, not its main read-out; they come without a call. Compounds called inactive in the main read-out are mostly missing here. Potencies come from curve fits of mixed quality, noted in brackets.

As for `Cc1ccccc1NC(=O)/C=C/c1ccc([N+](=O)[O-])s1`, the AC50 runs as follows: under setting [1], 8.91 µM [falling, partial curve]; under setting [2], 6.31 µM [falling, full curve].

For the compound `COc1cccc(/C=C(/C(=O)OCC(=O)NC2CCCCCCC2)c2ccccc2)c1`, the concentration at half-maximal activity (AC50) under setting [2] is 22.4 µM [rising, single point].

On to `Cc1ccc(Sc2ccc(C(=O)N(C)C)cc2[N+](=O)[O-])cc1`, for which the half-maximal activity concentration (AC50) runs as follows: under setting [1], 3.98 µM [falling, partial curve, poor fit]; under setting [2], 14.1 µM [falling, single point].

For `Fc1ccccc1OCCSc1nnnn1-c1ccccc1`, the AC50 under setting [2] was 31.6 µM [rising, single point].

With `O=C1CC(c2ccc(OCCCCCOc3ccc(C4CC(=O)NC4=O)cc3)cc2)C(=O)N1` (stereo unspecified), the concentration at half-maximal activity (AC50) under setting [1] was 35.5 µM [rising, single point] and the AC50 under setting [2] was 28.2 µM [rising, single point].

As to `Nc1cc(Cl)ccc1Oc1ccc2ccccc2c1`, the half-maximal activity concentration (AC50) under setting [2] is 12.6 µM [rising, single point].

For `Cc1ccc(CNC(=O)Cc2ccc(-c3ccccc3)cc2)cc1`, the half-maximal activity concentration (AC50) under setting [1] is 5.01 µM [falling, full curve, poor fit].

Take `Cc1ccc(NC(=O)COC(=O)CN2C(=O)c3ccccc3C2=O)cc1S(=O)(=O)N(C)C`: the AC50 under setting [1] was 5.62 µM [rising, partial curve].

In the case of `CN1/C(=C\C=O)C(C)(C)c2ccccc21`, the AC50 is, setting by setting: under setting [1], 1.58 µM [falling, partial curve]; under setting [2], 0.251 µM [falling, full curve].

As for `N#Cc1c(C(F)(F)F)cc(-c2ccc(F)cc2)nc1SCC(=O)O`, the half-maximal activity concentration (AC50) is 0.282 µM [falling, full curve, poor fit] under setting [1] and 17.8 µM [falling, partial curve, poor fit] under setting [2].

As for `C[C@H]1Cc2c(COc3ccccc3)nc3c(c2CO1)CN(C(=O)Nc1cccc(C#N)c1)CC3`, the AC50 under setting [2] was 0.000891 µM [falling, full curve, poor fit].

As for `CCc1c(C)sc(NC(=S)Nc2cccnc2)c1C(=O)OC`, under setting [2], the half-maximal activity concentration (AC50) is 14.1 µM [rising, single point].

`CC1(C)CC(NC(=O)COc2ccccc2Cl)CC(C)(C)N1`: under setting [1], the AC50 is 0.00794 µM [rising, full curve, poor fit].

Consider `CCOc1ccccc1CNC(=O)Cn1c(=O)c2cccn2c2ccc(F)cc21`, for which the concentration at half-maximal activity (AC50) under setting [2] was 17.8 µM [rising, single point].

In the case of `O=C(CSc1nc(Cc2ccccc2)nc2ccccc12)c1ccc2c(c1)OCCO2`, the concentration at half-maximal activity (AC50) under setting [2] is 14.1 µM [rising, partial curve].

For the compound `CCCCCC/C(=N/O)c1ccccn1`, the AC50 is 2.82 µM [rising, full curve] under setting [1] and 11.2 µM [rising, partial curve] under setting [2].

As to `Cc1nn(-c2ccccc2)c2c1C(O)n1c(nc3ccccc31)S2` (stereo unspecified), the AC50 under setting [2] was 35.5 µM [rising, single point].

On to `Cc1ccc(-n2cc3c(-c4cccc(Br)c4)nnc(C)c3n2)cc1`, for which the concentration at half-maximal activity (AC50) under setting [1] was 20 µM [rising, partial curve, poor fit] and the half-maximal activity concentration (AC50) under setting [2] is 14.1 µM [rising, partial curve].

Take `CCN(CC)S(=O)(=O)c1ccc(/C(O)=C(\C#N)c2nc3ccccc3n2C)cc1`: the AC50 under setting [2] is 14.1 µM [rising, partial curve, poor fit].

In the case of `Cc1cc(OC(C)C(=O)N2CCN(CCc3ccccn3)CC2)ccc1Cl` (stereo unspecified), the AC50 under setting [2] was 0.02 µM [falling, full curve, poor fit].

Regarding `Cc1oc(-c2ccc(Cl)cc2)nc1CN1CCC(C(=O)N2CCN(Cc3ccccc3)CC2)CC1`, the half-maximal activity concentration (AC50) under setting [1] is 35.5 µM [rising, single point] and the AC50 under setting [2] was 35.5 µM [rising, single point].

For `CCOc1ccccc1C(N)=O`, the AC50 under setting [1] was 12.6 µM [falling, single point].

For `CC(C)N(Cc1ccccc1)C(=O)c1cc2ccc3cccnc3c2[nH]1`, the concentration at half-maximal activity (AC50) under setting [1] was 17.8 µM [falling, partial curve, poor fit].

As for `Oc1ccc(Nc2nc(-c3ccc(O)cc3)cs2)cc1`, the AC50 under setting [2] is 7.94 µM [rising, partial curve].

As for `COc1cccc(C(c2sc3nc(-c4ccco4)nn3c2O)N2CCCC2)c1` (stereo unspecified), the AC50 by setting is: under setting [1], 0.0158 µM [falling, full curve, poor fit]; under setting [2], 0.0126 µM [falling, full curve, poor fit].

As for `COCCCn1c(SCC(=O)NCc2ccco2)nc2sc3c(c2c1=O)CCC3`, the AC50 under setting [2] is 35.5 µM [rising, single point].

With `C=CCc1cc(C(=O)N2CCCCC2)ccc1O`, the half-maximal activity concentration (AC50) under setting [2] is 35.5 µM [rising, single point].

As to `CCOc1ccc(/C=N/NC(=S)Nc2c(C)cccc2C)cc1`, the AC50 under setting [2] was 14.1 µM [rising, single point].

As to `COc1cccc(C2=NOC(C(=O)NCc3ccco3)C2)c1` (stereo unspecified), the AC50 under setting [1] is 35.5 µM [falling, single point] and the concentration at half-maximal activity (AC50) under setting [2] was 35.5 µM [falling, single point].

Consider `COc1ccc(NC(=O)c2c(NCc3cccs3)sc3c2CCCCC3)cc1`, for which the concentration at half-maximal activity (AC50) under setting [2] was 12.6 µM [rising, partial curve].

Take `Cc1ccc2c(c1)nnn2C1CCN(C(=O)c2cccs2)CC1`: the concentration at half-maximal activity (AC50) by setting is: under setting [1], 11.2 µM [rising, partial curve, poor fit]; under setting [2], 11.2 µM [rising, partial curve, poor fit].

On to `CC(C)Oc1cccc(C(=O)NC(=S)NCc2cccnc2)c1`, for which, under setting [2], the concentration at half-maximal activity (AC50) is 15.8 µM [rising, partial curve, poor fit].

`O=C(c1ccccc1Br)N1CCC(c2nc3ccccc3s2)CC1`: the concentration at half-maximal activity (AC50) reads like this: under setting [1], 31.6 µM [falling, single point]; under setting [2], 35.5 µM [falling, single point].

As for `O=C(/C=C/c1ccc(Cl)cc1Cl)Nc1ccncc1`, the concentration at half-maximal activity (AC50) under setting [2] was 14.1 µM [rising, partial curve].

As for `COc1cccc(OCCNc2cc(N3CCOCC3)ccc2[N+](=O)[O-])c1`, the AC50 under setting [2] is 14.1 µM [rising, partial curve].

On to `COC(=O)c1cc(N2CCN(C)CC2)nc2ccccc12`, for which the AC50 under setting [1] was 0.0158 µM [falling, full curve, poor fit].

For the compound `CN(c1cccc(Cl)c1)S(=O)(=O)c1cccc(C(=O)Nc2ccc3c(c2)CCC3)c1`, the concentration at half-maximal activity (AC50) was 12.6 µM [rising, single point] under setting [1] and 12.6 µM [rising, partial curve] under setting [2].

Turning to `Cc1ccc(N2C(=O)/C(=C/c3cccnc3)SC2=S)cc1`, the half-maximal activity concentration (AC50) under setting [2] is 7.94 µM [rising, full curve, poor fit].

For the compound `O=C(C1CC1)N1N=C2CCCCC2C1(O)C(F)(F)F` (stereo unspecified), under setting [1], the concentration at half-maximal activity (AC50) is 0.00316 µM [rising, full curve, poor fit].

In the case of `O=C(Nc1cc(SCCO)cc([N+](=O)[O-])c1)c1ccc(Br)o1`, the AC50 is, setting by setting: under setting [1], 14.1 µM [rising, partial curve]; under setting [2], 15.8 µM [rising, partial curve].

As for `N#Cc1nc(Cc2ccccc2)oc1NCc1ccccc1`, the AC50 under setting [2] was 35.5 µM [rising, single point].

With `COc1ccccc1NS(=O)(=O)c1ccc(Br)s1`, under setting [2], the concentration at half-maximal activity (AC50) is 35.5 µM [falling, single point].

With `Cc1ccc(C(=O)C[n+]2ccc(Cc3ccccc3)cc2)cc1`, under setting [2], the half-maximal activity concentration (AC50) was 0.0708 µM [falling, full curve, poor fit].

As to `O=C(CNc1cccc(Cl)c1)c1ccc(Cl)cc1`, the concentration at half-maximal activity (AC50) reads like this: under setting [1], 31.6 µM [falling, single point]; under setting [2], 25.1 µM [falling, partial curve].

In the case of `CC(C)[C@H](NC(=O)c1ccccc1)C(=O)OCc1nc2scc(-c3ccccc3)c2c(=O)[nH]1`, under setting [2], the AC50 is 12.6 µM [rising, single point].

For the compound `CCCCOc1ncnc2c1[nH]c1ccc(F)cc12`, the AC50 is 2 µM [rising, partial curve, poor fit] under setting [1] and 3.98 µM [rising, partial curve] under setting [2].

On to `COC(=O)CCC(=O)OC1(C)C(=O)C=C2C=C(C3CC3)N(c3ccc(CO)cc3)C=C2C1=O` (stereo unspecified), for which the AC50 under setting [1] was 1.26 µM [rising, partial curve].

Take `CCC(CC)C(=O)Nc1nnc(SCc2cc(=O)c3ccccc3[nH]2)s1`: the concentration at half-maximal activity (AC50) under setting [1] was 10 µM [falling, partial curve, poor fit].

In the case of `NC(=O)c1ccsc1NC(=O)c1ccc(S(=O)(=O)N2CCCC2)cc1`, the AC50 under setting [1] is 1.26 µM [rising, single point].

For `CCc1cccc(CC)c1NC(=S)NCc1ccc2[nH]c(C)cc2c1`, under setting [2], the AC50 was 35.5 µM [rising, single point].

With `O=C1CCCC(O)=C1C(C#Cc1ccccc1)C1=C(O)CCCC1=O`, the concentration at half-maximal activity (AC50) under setting [2] was 11.2 µM [rising, partial curve, poor fit].

With `O=S(=O)(c1ccc(Br)cc1)N1CCCC1c1nc2ccccc2s1` (stereo unspecified), the concentration at half-maximal activity (AC50) under setting [2] was 25.1 µM [rising, single point].

In the case of `O=C(/C=C/c1ccccc1)NCc1cccnc1`, the AC50 under setting [1] is 35.5 µM [falling, partial curve, poor fit].

Consider `CCn1c2c(c(=O)n3ncc(C(=O)Nc4ccc(C(=O)OC)cc4)c13)CN(Cc1ccc(OC)cc1)CC2`, for which the AC50 under setting [1] was 0.0224 µM [falling, full curve, poor fit].

Consider `Cc1ccc(NC(=O)C2(c3ccccc3)CCOCC2)cc1`, for which the AC50 was 2.82 µM [falling, partial curve, poor fit] under setting [1] and 0.316 µM [falling, full curve, poor fit] under setting [2].

On to `COc1ccc(-n2c(=O)c3ccccc3c3ccccc3c2=O)c(OC)c1`, for which the AC50 under setting [2] was 6.31 µM [rising, partial curve].

As for `Cc1ccc(NC(=O)C(=O)NCC(c2cccnc2)N2CCN(C)CC2)cc1` (stereo unspecified), the concentration at half-maximal activity (AC50) under setting [1] was 22.4 µM [falling, single point] and the half-maximal activity concentration (AC50) under setting [2] was 25.1 µM [falling, partial curve].

Consider `O=C(NCCc1ccc(Cl)cc1)C(=O)NCC(c1ccco1)S(=O)(=O)c1ccccc1` (stereo unspecified), for which the half-maximal activity concentration (AC50) under setting [1] is 0.891 µM [falling, full curve, poor fit].

A word on the AC50: it is the concentration at which the activity in the assay is half-maximal.
